The assay has as its target T1, BioGFP-tagged KANK1 (full-length) (human) (UniProt Q14678).
T1 sequence (chain, biotinylated on the Bio tag (by BirA)): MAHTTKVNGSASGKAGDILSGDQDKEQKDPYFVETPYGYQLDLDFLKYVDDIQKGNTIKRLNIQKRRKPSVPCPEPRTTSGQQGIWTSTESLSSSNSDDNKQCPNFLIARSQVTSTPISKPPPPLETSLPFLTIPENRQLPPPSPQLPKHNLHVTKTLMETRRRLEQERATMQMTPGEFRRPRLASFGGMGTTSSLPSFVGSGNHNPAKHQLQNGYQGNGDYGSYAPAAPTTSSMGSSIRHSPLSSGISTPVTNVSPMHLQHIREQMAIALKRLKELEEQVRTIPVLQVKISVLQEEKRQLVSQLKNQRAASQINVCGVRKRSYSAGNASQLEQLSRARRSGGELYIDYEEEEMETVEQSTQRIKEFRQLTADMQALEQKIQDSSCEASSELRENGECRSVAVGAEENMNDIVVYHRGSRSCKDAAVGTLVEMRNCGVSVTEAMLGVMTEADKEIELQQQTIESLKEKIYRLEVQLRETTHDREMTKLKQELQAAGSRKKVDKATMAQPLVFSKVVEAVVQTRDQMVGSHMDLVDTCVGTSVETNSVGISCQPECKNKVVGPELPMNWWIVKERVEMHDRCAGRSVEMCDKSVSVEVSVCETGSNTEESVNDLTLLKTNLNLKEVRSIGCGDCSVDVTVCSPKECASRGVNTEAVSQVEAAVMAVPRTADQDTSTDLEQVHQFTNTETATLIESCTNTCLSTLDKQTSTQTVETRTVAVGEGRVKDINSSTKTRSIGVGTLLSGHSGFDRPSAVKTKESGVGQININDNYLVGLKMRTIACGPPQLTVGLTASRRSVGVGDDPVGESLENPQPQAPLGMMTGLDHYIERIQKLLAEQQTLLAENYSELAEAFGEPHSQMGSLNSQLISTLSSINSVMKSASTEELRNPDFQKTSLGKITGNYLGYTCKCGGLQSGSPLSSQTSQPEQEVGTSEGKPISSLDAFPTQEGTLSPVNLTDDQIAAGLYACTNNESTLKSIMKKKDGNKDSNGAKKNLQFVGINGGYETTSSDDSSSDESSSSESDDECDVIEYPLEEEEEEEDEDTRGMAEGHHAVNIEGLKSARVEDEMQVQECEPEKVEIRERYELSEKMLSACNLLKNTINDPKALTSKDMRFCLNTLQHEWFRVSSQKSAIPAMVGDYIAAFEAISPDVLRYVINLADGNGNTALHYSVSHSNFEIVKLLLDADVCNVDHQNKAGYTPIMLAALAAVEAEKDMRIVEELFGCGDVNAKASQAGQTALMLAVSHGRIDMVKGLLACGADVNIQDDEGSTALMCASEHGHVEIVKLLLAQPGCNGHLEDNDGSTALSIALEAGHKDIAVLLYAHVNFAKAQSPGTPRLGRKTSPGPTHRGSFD
The assay can be described thus: affinity purification with mass spectrometry; Bio-GFP-tagged KANK1 or its N- and C-terminal fragments co-expressed with biotin ligase BirA in HEK293T; streptavidin beads; endogenous preys found by nanoLC-MS/MS.

Sequences of proteins named here, by UniProt entry; tags and fusion partners are left off.
UniProt Q7Z4S6: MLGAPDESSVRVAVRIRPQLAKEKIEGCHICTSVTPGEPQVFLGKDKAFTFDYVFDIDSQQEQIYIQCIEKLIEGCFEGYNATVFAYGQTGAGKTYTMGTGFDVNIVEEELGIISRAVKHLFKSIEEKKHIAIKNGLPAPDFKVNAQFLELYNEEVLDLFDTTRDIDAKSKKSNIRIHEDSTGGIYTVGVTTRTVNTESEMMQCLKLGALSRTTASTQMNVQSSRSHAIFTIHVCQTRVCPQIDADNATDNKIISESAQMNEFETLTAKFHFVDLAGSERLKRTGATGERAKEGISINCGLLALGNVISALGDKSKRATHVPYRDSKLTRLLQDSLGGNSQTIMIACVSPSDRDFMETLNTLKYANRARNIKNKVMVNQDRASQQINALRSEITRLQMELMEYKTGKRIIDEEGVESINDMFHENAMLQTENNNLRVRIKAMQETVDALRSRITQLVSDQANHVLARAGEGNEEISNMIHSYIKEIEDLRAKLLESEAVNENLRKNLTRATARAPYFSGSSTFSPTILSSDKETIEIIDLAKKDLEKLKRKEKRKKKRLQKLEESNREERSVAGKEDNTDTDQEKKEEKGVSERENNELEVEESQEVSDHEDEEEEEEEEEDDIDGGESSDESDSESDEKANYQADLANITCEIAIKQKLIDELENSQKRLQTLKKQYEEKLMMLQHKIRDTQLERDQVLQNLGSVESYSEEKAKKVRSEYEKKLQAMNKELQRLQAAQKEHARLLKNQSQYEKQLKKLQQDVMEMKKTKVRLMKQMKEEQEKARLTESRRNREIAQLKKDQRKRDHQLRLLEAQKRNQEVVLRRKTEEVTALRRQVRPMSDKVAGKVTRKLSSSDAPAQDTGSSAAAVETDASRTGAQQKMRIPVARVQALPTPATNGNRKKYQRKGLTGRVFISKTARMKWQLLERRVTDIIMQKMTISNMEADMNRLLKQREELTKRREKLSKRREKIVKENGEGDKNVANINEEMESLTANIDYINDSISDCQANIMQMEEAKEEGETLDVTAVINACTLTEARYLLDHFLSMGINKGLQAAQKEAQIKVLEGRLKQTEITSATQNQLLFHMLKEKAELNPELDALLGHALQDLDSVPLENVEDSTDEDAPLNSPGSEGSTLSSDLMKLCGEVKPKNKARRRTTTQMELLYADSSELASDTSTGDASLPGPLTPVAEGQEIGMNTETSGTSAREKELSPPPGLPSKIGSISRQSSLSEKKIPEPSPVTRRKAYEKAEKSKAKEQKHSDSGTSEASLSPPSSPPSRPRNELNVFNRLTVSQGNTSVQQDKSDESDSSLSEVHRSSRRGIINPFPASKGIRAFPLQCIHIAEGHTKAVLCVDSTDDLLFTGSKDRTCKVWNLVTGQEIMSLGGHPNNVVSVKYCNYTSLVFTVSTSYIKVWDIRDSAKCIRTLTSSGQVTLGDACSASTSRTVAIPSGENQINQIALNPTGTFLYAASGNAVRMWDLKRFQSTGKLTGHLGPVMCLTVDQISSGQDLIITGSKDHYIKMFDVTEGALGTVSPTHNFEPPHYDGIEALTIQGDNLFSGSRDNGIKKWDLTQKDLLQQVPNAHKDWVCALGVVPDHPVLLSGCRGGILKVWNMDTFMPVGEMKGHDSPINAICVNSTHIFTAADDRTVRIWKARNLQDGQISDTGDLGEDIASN
UniProt Q9Y4G6: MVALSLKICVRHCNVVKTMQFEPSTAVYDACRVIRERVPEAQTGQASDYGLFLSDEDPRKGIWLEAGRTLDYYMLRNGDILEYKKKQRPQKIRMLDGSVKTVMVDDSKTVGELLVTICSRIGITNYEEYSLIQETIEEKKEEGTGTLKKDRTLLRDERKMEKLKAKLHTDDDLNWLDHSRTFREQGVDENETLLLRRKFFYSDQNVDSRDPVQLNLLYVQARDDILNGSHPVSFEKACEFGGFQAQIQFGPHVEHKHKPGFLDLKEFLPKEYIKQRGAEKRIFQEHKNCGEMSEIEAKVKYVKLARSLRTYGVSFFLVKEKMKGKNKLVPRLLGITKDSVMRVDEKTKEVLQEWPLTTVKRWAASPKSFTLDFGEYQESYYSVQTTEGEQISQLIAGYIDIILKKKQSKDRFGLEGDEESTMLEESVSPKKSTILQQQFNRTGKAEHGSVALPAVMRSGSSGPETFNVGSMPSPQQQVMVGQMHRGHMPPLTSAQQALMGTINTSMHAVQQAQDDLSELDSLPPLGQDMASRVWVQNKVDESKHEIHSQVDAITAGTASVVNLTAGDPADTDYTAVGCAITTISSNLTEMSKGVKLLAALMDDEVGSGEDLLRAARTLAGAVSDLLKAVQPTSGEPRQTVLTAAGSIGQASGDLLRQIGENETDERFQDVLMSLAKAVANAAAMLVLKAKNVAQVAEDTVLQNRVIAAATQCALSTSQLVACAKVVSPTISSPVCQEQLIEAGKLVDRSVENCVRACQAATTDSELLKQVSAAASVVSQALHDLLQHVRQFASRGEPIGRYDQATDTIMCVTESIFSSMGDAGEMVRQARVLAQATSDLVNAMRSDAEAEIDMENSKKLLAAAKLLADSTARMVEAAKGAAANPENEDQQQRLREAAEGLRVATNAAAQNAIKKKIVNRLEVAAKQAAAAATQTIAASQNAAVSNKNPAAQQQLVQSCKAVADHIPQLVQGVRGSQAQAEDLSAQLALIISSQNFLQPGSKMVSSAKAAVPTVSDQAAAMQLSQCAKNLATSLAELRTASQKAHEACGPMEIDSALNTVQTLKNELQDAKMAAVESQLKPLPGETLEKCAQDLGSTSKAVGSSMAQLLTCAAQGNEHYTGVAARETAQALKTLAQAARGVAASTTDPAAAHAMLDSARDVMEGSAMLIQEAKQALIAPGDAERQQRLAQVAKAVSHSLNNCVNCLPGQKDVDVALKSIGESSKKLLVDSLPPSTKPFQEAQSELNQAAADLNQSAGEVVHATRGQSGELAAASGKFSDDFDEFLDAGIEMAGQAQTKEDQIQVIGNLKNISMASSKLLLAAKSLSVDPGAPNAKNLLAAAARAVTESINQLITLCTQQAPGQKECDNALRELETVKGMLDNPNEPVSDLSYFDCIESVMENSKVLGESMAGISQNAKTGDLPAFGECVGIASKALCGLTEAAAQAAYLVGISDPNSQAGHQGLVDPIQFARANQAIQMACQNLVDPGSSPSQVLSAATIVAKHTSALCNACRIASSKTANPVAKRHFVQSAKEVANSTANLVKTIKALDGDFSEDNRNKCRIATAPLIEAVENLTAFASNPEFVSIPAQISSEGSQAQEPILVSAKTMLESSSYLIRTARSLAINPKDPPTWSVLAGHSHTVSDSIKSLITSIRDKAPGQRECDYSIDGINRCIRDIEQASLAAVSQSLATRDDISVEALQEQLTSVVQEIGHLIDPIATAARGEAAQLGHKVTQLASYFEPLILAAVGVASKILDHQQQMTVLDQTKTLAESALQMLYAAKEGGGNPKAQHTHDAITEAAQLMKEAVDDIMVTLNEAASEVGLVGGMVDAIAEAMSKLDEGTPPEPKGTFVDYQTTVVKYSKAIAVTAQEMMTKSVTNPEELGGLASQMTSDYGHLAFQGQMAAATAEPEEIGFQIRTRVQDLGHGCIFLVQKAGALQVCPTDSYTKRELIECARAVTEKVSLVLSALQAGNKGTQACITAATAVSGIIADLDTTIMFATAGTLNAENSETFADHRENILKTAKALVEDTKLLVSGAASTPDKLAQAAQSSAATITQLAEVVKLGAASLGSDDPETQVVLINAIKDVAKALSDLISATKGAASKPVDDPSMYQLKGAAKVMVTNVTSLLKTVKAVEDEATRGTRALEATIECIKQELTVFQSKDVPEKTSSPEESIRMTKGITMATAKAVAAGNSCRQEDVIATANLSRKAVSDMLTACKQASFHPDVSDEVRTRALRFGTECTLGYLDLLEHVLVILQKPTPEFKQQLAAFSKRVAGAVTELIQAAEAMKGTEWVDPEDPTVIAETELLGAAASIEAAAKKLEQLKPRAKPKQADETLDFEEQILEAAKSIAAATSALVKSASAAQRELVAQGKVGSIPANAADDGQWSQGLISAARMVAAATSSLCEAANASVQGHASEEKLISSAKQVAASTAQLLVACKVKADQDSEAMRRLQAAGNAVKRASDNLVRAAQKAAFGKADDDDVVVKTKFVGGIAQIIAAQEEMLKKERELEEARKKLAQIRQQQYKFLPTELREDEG

These are yes or no findings as the source states them, for the method shown. Binding seen in cells or lysates may run through a third protein. Here binding means that the protein was enriched with, or labelled near, the bait; the list need not be complete. No binding means not detected with the bait. Tags and fused reporters may be left off the sequences shown.

Regarding “KIF21A (endogenous, HEK293T) (from UniProt Q7Z4S6 1-1674)”, the binding entry is on record as “binds”.
The same measure for “talin2 (endogenous, HEK293T) (from UniProt Q9Y4G6 1-2542)”: “no binding”.

For the origin of these results see publication PMC4995097, “Talin-KANK1 interaction controls the recruitment of cortical microtubule stabilizing complexes to focal adhesions” (eLife, 2016).
